Results on five molecules are retold here after publication PMC6250667.

Protein sequences, listed by entry. Tags and fused reporters are not part of them.
UniProt P30153: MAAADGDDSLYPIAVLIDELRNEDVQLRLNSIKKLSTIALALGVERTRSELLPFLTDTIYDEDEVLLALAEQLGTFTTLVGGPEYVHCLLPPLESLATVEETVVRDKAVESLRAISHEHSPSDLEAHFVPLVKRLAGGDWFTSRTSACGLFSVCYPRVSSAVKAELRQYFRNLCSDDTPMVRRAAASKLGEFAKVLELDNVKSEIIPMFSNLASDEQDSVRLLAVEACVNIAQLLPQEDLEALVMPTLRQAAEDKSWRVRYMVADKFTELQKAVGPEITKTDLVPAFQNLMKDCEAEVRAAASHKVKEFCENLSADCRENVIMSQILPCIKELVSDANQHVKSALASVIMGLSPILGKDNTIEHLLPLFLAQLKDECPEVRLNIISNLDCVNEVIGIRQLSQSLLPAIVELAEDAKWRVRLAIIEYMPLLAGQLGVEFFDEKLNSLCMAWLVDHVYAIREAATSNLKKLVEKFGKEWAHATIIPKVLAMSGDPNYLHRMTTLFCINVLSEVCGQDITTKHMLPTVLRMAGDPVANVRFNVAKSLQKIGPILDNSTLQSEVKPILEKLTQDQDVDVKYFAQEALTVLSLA
UniProt P63151: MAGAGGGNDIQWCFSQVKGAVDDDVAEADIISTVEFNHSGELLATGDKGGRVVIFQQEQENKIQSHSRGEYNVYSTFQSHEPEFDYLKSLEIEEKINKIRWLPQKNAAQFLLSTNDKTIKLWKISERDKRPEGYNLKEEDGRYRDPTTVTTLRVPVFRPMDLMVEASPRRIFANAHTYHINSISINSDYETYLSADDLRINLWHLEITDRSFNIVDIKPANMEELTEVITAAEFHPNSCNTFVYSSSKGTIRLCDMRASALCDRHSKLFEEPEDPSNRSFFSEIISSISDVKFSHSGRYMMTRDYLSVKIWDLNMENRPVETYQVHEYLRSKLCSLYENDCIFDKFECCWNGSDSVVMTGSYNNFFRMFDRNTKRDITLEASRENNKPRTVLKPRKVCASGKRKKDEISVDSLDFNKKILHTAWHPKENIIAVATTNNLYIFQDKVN
UniProt P67775: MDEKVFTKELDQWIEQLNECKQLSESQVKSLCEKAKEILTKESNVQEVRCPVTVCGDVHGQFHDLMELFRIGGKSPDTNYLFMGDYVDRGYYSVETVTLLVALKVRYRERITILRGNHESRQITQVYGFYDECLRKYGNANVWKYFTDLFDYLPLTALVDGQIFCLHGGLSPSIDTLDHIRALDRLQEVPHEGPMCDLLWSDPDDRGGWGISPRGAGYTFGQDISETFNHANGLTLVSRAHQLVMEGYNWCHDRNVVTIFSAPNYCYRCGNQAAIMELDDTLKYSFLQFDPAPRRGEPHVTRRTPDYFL
UniProt P62714: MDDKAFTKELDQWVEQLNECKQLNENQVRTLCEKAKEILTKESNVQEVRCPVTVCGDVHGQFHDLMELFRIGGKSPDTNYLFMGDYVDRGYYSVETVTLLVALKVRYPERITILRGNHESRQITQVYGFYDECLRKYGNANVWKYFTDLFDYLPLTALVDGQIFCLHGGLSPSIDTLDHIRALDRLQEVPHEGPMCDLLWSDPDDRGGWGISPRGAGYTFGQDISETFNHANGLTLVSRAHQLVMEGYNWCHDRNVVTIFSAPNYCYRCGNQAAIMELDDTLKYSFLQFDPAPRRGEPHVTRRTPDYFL

These are yes or no findings as the source states them, for the method shown. In cells and extracts the contact can be indirect. A yes stands for co-enrichment or nearness to the bait. Other partners may have been found. Where a sequence is shown, tags or fusion partners need not be part of it.

This assay addresses T1, FLAG Foxi3 FL 1–399 (mouse) (UniProt D3Z120).
T1 sequence: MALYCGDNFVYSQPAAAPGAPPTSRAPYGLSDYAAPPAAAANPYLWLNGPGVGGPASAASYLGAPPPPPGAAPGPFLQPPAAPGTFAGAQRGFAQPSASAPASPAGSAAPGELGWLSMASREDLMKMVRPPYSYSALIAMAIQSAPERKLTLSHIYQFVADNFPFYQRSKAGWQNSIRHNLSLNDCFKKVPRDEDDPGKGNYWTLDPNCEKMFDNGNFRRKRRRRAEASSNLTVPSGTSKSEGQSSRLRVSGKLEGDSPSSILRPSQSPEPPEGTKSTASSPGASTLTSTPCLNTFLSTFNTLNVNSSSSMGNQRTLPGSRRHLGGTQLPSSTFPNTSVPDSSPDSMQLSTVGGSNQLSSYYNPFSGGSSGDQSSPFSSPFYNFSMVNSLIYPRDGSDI
Nature of the assay: affinity purification with mass spectrometry; HEK-293T transfected with FLAG Foxi3 FL 1–399 (blank 3XFLAG vector as control); whole cell lysates 48 h after transfection; immunoprecipitation with FLAG beads, SDS-PAGE, in-gel trypsin digestion, nanoHPLC-MS/MS searched against human RefSeq.

As for “PPP2R1A (PP2A scaffold A subunit, isoform α), endogenous (from UniProt P30153 1-589)”, the binding entry was “binds”.
Under “PPP2R2A (PP2A regulatory B subunit, isoform α), endogenous (from UniProt P63151 1-447)” stands “binds”; under “PPP2CA (PP2A catalytic C subunit, isoform α), endogenous (from UniProt P67775 1-309) (enzyme)”, “binds”; under “PPP2CB (PP2A catalytic C subunit, isoform β), endogenous (from UniProt P62714 1-309) (enzyme)”, “binds”.

B1: PPP2R2D (PP2A regulatory B subunit, isoform δ), endogenous (protein, UniProt Q66LE6 1-453)
chain: MAGAGGGGCPAGGNDFQWCFSQVKGAIDEDVAEADIISTVEFNYSGDLLATGDKGGRVVIFQREQENKSRPHSRGEYNVYSTFQSHEPEFDYLKSLEIEEKINKIRWLPQQNAAHFLLSTNDKTIKLWKISERDKRAEGYNLKDEDGRLRDPFRITALRVPILKPMDLMVEASPRRIFANAHTYHINSISVNSDHETYLSADDLRINLWHLEITDRSFNIVDIKPANMEELTEVITAAEFHPHQCNVFVYSSSKGTIRLCDMRSSALCDRHSKFFEEPEDPSSRSFFSEIISSISDVKFSHSGRYMMTRDYLSVKVWDLNMESRPVETHQVHEYLRSKLCSLYENDCIFDKFECCWNGSDSAIMTGSYNNFFRMFDRDTRRDVTLEASRESSKPRASLKPRKVCTGGKRRKDEISVDSLDFNKKILHTAWHPVDNVIAVAATNNLYIFQDKIN
As to B1, the binding entry is “binds”.
